PubChem BioAssay AID1224828, NIAID | 2016

Test: 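Find genes required for NF-kappaB p65 moving into the nucleus after LPS in mouse macrophages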 (primary screen)
Cells: mouse RAW264.7 G9 macrophage reporter cells (GFP-p65, Tnf promoter-mCherry)
Knock-down reagent: siRNA pool against mouse genes, 100 nM
Timing: 2 days siRNA transfection, then 40 min LPS before fixation
Conditions: LPS (Salmonella minnesota R595) at 10 ng/ml
Read-out: 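Imaged p65 nuclear translocation ratio, normalised to the plate median, converted to robust z-scores and averaged across two replicates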
Scale: p65 translocation robust z-score: higher = more nuclear NF-kappaB p65 after LPS than the plate median; nuclear/cytoplasmic p65 ratio: higher = more nuclear NF-kappaB p65
Active means: 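Active if robust z is above 3.3 (negative regulators) or below -1.56, the Tlr4 control median (positive regulators); activity score 50 or more; control wells not called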
Calls: active = hit (p65 shift raised or lowered); inactive = no clear change
In all, the deposit lists about 17,000 reagents; this is a random part of them. Of all reagents, 762 (4.5%) are marked active. 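Active calls include both raised and lowered p65 entry, mostly lowered; wells with fewer than 50 cells lack a z-score.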 Raw values vary from plate to plate and are shown uncorrected. Unmarked entries are inactive. No sequences are given here.

Against Dnajb3 (DnaJ heat shock protein family (Hsp40) member B3) the deposit lists p65 translocation robust z-score 0.04; nuclear/cytoplasmic p65 ratio, rep 1 = 1.41; nuclear/cytoplasmic p65 ratio, rep 2 = 1.42; low cell count flag enough cells to score.
Silencing of Klhl28 (kelch-like 28) came out at: p65 translocation robust z-score 0.57; nuclear/cytoplasmic p65 ratio, rep 1 = 1.25; nuclear/cytoplasmic p65 ratio, rep 2 = 1.6; low cell count flag enough cells to score.
With knock-down of Trpm2, the record shows p65 translocation robust z-score -1.39; nuclear/cytoplasmic p65 ratio, rep 1 = 1.38; nuclear/cytoplasmic p65 ratio, rep 2 = 1.24; low cell count flag enough cells to score.
With knock-down of Lactb2 (lactamase, beta 2), the record shows p65 translocation robust z-score 1.42; nuclear/cytoplasmic p65 ratio, rep 1 = 1.72; nuclear/cytoplasmic p65 ratio, rep 2 = 1.65; low cell count flag enough cells to score.
For Pfkfb3 (6-phosphofructo-2-kinase/fructose-2,6-biphosphatase 3), the values are p65 translocation robust z-score 0.14; nuclear/cytoplasmic p65 ratio, rep 1 = 1.65; nuclear/cytoplasmic p65 ratio, rep 2 = 1.44; low cell count flag enough cells to score.
Tmco5a (transmembrane and coiled-coil domains 5A) gave nuclear/cytoplasmic p65 ratio, rep 1 = 1.18; nuclear/cytoplasmic p65 ratio, rep 2 = 1.12; low cell count flag fewer than 50 cells per well; well left out of scoring.
Depletion of Trabd (TraB domain containing) came out at: p65 translocation robust z-score 1.98; nuclear/cytoplasmic p65 ratio, rep 1 = 1.55; nuclear/cytoplasmic p65 ratio, rep 2 = 1.8; low cell count flag enough cells to score.
Or6d12 (olfactory receptor family 6 subfamily D member 12) scored nuclear/cytoplasmic p65 ratio, rep 1 = 1.22; nuclear/cytoplasmic p65 ratio, rep 2 = 1.32; low cell count flag fewer than 50 cells per well; well left out of scoring.

Records above whose target name starts with T or t:
Trpm2: p65 translocation robust z-score = -1.39; nuclear/cytoplasmic p65 ratio, rep 1 = 1.38; nuclear/cytoplasmic p65 ratio, rep 2 = 1.24; low cell count flag = enough cells to score
Tmco5a (transmembrane and coiled-coil domains 5A): nuclear/cytoplasmic p65 ratio, rep 1 = 1.18; nuclear/cytoplasmic p65 ratio, rep 2 = 1.12; low cell count flag = fewer than 50 cells per well; well left out of scoring
Trabd (TraB domain containing): p65 translocation robust z-score = 1.98; nuclear/cytoplasmic p65 ratio, rep 1 = 1.55; nuclear/cytoplasmic p65 ratio, rep 2 = 1.8; low cell count flag = enough cells to score

More results follow:
For Vps28 (vacuolar protein sorting 28), the values are p65 translocation robust z-score -0.55; nuclear/cytoplasmic p65 ratio, rep 1 = 1.32; nuclear/cytoplasmic p65 ratio, rep 2 = 1.16; low cell count flag enough cells to score.
Knock-down of Or13f5 (olfactory receptor family 13 subfamily F member 5) gave: p65 translocation robust z-score -0.78; nuclear/cytoplasmic p65 ratio, rep 1 = 1.46; nuclear/cytoplasmic p65 ratio, rep 2 = 1.35; low cell count flag enough cells to score.
Depletion of Pla2g7 resulted in: p65 translocation robust z-score 0.35; nuclear/cytoplasmic p65 ratio, rep 1 = 1.55; nuclear/cytoplasmic p65 ratio, rep 2 = 1.45; low cell count flag enough cells to score.
For Gdf11 (growth differentiation factor 11) the deposit lists p65 translocation robust z-score 0.27; nuclear/cytoplasmic p65 ratio, rep 1 = 1.45; nuclear/cytoplasmic p65 ratio, rep 2 = 1.43; low cell count flag enough cells to score.
With knock-down of Dapk1 (death associated protein kinase 1), the screen gave nuclear/cytoplasmic p65 ratio, rep 1 = 1.61; nuclear/cytoplasmic p65 ratio, rep 2 = 1.24; low cell count flag fewer than 50 cells per well; well left out of scoring.
Against Map2k4 (mitogen-activated protein kinase kinase 4), the values are p65 translocation robust z-score 3.55 (active); nuclear/cytoplasmic p65 ratio, rep 1 = 2.06; nuclear/cytoplasmic p65 ratio, rep 2 = 1.82; low cell count flag enough cells to score.
